Source: PubChem BioAssay AID504784 (Drosophila RNAi Screening Center, 2011)
The deposit covers about 17,000 reagents; shown is an unselected part of those with a known target gene and a result. 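Each column is one replicate's B-score; the combined score over replicates was not deposited, so single values may mislead.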 The numbers tell different reagents against one gene apart. Names joined by + are all predicted targets of the reagent. Further read-outs or replicates are left out here.

Assay: 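Search for regulators of lipid droplet storage in oleate-fed fly cells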 (primary screen)
Cells: Drosophila Kc167 embryonic cells
Reagent: long dsRNA against Drosophila genes, about 250 ng dsRNA per well
Duration: 4 days
Conditions: cells fed 400 µM oleic acid bound to BSA
Measured: 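Microscope images give a droplet-to-nucleus area ratio, taken as log and converted to a screen-wide B-score; higher values mean greater lipid storage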
Direction: droplet/nuclear area B-score: higher = more stored lipid (overstorage)

gene | dsRNA no. | droplet/nuclear area B-score, replicate 1
Arl4 (ADP ribosylation factor-like 4) | 1 | 0.467
CG12355 | 1 | 1.33
CG12355 | 2 | 0.339
CG17019 | 1 | -0.68
DIP-gamma (Dpr-interacting protein gamma) | 1 | -0.197
Cyp6a15Psi (pseudo) | 1 | 0.143
CG31821 | 1 | -0.895
ecd (ecdysoneless) | 1 | -0.924
Scgalpha (Sarcoglycan alpha) | 1 | -0.822
CG15021 | 1 | -1.28
KCNQ (KCNQ potassium channel) | 1 | -1.12
KCNQ (KCNQ potassium channel) | 2 | 0.791
NaPi-III (Na[+]-dependent inorganic phosphate cotransporter type III) | 1 | 0.0425
NaPi-III (Na[+]-dependent inorganic phosphate cotransporter type III) | 2 | -1.04
NaPi-III (Na[+]-dependent inorganic phosphate cotransporter type III) | 3 | 0.266
rasp | 1 | 0.468
CG11594 | 1 | -2.07
CG14282 | 1 | 0.537
CG15824 | 1 | -0.0567
CG1703 | 1 | -0.68
lambdaTry | 1 | -0.111
Pal2 (Peptidyl-alpha-hydroxyglycine-alpha-amidating lyase 2) | 1 | -0.0813
CG31784 | 1 | 0.25
Gpb5 (Glycoprotein hormone beta 5) | 1 | -0.322
janB (janus B) | 1 | 0.0495
mod (modulo) | 1 | -0.235
mRpS7 (mitochondrial ribosomal protein S7) | 1 | -1.6
Mst84Dd (Male-specific RNA 84Dd) | 1 | -1.05
ppl (pumpless) | 1 | -0.567
COX5A (Cytochrome c oxidase subunit 5A) | 1 | 2.08
Tbcd (Tubulin-binding cofactor D) | 1 | -0.492
CG11317 | 1 | 0.13
CG6073 | 1 | 1.62
CG6073 | 2 | 0.0303
Prx6c + CG12896 + Prx6b | 1 | 4.94
DIP1 (DISCO Interacting Protein 1) | 1 | -0.0117
CG11663 | 1 | 1.93
CG11663 | 2 | -2.7
CG9853 | 1 | -0.0443
CG9853 | 2 | -0.851

Next part (7 carried over from the part before).
gene | dsRNA no. | droplet/nuclear area B-score, replicate 1
CG6073 | 2 | 0.0303
Prx6c + CG12896 + Prx6b | 1 | 4.94
DIP1 (DISCO Interacting Protein 1) | 1 | -0.0117
CG11663 | 1 | 1.93
CG11663 | 2 | -2.7
CG9853 | 1 | -0.0443
CG9853 | 2 | -0.851
CG13066 | 1 | -0.332
nyo (nyobe) | 1 | 0.192
nyo (nyobe) | 2 | -0.429
Pfk (Phosphofructokinase) | 1 | -0.553
CG13796 + CG31904 | 1 | -0.498
CG1113 | 1 | -3.44
dpp (decapentaplegic) | 1 | 1.87
dpp (decapentaplegic) | 2 | -0.0263
dpp (decapentaplegic) | 3 | -1
CG10931 | 1 | -1.18
CG10151 | 1 | -1.03
CG11145 | 1 | 0.413
mam (mastermind) | 1 | -2.14
mam (mastermind) | 2 | 1.6
mam (mastermind) | 3 | -0.022
JIL-1 (JIL-1 kinase) | 1 | 0.138
CycB3 (Cyclin B3) | 1 | -1.74
Zip42C.1 (Zinc/iron regulated transporter-related protein 42C.1) | 1 | -0.0414
mRpL33 (mitochondrial ribosomal protein L33) | 1 | 1.3
loaf (lost and found) | 1 | -1.97
CG11970 | 1 | 1.36
Pep (Protein on ecdysone puffs) | 1 | -2.35
CG14570 | 1 | 3.05
psh (persephone) | 1 | 0.614
Wnt5 (Wnt oncogene analog 5) | 1 | -1.03
CG10912 | 1 | -0.234
CAH6 (Carbonic anhydrase 6) | 1 | -0.00556
KLHL18 (Kelch like family member 18) | 1 | 0.736
lab (labial) | 1 | -1.89
CG14949 | 1 | 1.56
CG14631 | 1 | -0.519
CG14631 | 2 | -0.459
CG13678 | 1 | -0.00466
CG9444 | 1 | -0.866
Cpsf100 (Cleavage and polyadenylation specificity factor 100) | 1 | 0.614
prg (piragua) | 1 | -0.258
mon2 (monensin sensitivity 2) | 1 | 0.0166
CG34247 | 1 | 0.914
CSN3 (COP9 signalosome subunit 3) | 1 | 0.277
CG17806 | 1 | 0.168
Cpr49Ag (Cuticular protein 49Ag) | 1 | 0.0679
mask (multiple ankyrin repeats single KH domain) | 1 | 0.33
mask (multiple ankyrin repeats single KH domain) | 2 | 0.0995
mask (multiple ankyrin repeats single KH domain) | 3 | 1.91
